Measurements reported in doi:10.1101/2020.04.19.045989.
No constants are given. Whether binding was seen depends on the method and setting. Binding seen in cells or lysates may run through a third protein. Some entries that bind do so weakly or less than the wild type.

Chains of the proteins cited; added tags and fusions are not shown.
UniProt Q92786: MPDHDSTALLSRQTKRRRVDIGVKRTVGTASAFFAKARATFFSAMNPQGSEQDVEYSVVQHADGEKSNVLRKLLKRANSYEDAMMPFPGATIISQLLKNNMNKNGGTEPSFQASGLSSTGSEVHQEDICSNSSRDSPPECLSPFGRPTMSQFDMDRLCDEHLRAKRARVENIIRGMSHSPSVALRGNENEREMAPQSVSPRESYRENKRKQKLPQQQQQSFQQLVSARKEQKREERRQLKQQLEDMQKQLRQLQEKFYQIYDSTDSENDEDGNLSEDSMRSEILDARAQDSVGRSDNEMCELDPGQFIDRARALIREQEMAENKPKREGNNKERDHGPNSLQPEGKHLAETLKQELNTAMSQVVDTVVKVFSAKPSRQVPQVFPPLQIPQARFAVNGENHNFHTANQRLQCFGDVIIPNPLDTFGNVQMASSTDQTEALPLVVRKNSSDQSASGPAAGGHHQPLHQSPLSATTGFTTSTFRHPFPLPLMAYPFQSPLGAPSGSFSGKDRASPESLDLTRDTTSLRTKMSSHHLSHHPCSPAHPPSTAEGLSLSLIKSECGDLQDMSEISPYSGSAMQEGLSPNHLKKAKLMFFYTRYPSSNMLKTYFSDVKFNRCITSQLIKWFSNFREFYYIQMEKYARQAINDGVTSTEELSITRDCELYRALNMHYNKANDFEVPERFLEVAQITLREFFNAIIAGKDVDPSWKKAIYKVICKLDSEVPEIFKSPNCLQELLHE
UniProt Q13547: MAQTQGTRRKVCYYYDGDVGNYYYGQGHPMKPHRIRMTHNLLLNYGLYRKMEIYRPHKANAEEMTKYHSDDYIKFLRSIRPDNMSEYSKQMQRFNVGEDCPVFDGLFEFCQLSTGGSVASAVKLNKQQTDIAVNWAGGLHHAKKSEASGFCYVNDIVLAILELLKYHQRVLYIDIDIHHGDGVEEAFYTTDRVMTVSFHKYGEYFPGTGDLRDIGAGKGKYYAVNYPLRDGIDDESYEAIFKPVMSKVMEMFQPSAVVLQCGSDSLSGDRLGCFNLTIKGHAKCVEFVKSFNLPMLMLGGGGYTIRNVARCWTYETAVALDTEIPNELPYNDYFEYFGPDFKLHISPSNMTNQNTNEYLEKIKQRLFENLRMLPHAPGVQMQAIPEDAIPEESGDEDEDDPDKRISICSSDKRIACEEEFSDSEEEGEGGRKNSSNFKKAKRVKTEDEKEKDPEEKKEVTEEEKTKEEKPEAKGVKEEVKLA

Molecular target: PROX1 transcription factor (human (endogenous in RD)) (UniProt Q92786)
Experiment: co-IP

“HDAC1 (from UniProt Q13547 1-482) (enzyme)” was tested, and the binding was “binds”.
